Laboratory results as given in article PMC11165477.
No constants are given. Whether binding was seen depends on the method and setting. In cells and extracts the contact can be indirect. Sequences can lack the tags named with a protein.

Target: T1, AtALS3, tonoplast protein, cYFP fusion (negative control of the BiFC) (Arabidopsis) (UniProt Q9ZUT3)
T1 sequence: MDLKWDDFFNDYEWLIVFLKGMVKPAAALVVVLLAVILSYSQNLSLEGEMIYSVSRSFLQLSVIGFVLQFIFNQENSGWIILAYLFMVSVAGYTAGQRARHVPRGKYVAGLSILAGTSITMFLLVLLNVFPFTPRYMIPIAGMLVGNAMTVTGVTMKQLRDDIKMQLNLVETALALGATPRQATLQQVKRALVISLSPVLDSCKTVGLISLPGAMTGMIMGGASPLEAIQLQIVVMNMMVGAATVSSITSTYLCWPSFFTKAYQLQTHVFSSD
Assay: split reporter; BiFC with split YFP in N. benthamiana leaves; 48 h after agroinfiltration protoplasts isolated and lysed, vacuoles imaged by confocal microscopy

Ma1α (full-length isoform of apple ALMT9/Ma1), split-YFP fusion for BiFC in N. benthamiana
binding: no binding
